Source: the supplement of paper PMC10849652
The other results are listed elsewhere or left out.

Protein sequences, listed by entry. Tags and fused reporters are not part of them. Lines headed by an entry give the natural chain unless they say otherwise; changes in a name come on top.
UniProt Q86UB9: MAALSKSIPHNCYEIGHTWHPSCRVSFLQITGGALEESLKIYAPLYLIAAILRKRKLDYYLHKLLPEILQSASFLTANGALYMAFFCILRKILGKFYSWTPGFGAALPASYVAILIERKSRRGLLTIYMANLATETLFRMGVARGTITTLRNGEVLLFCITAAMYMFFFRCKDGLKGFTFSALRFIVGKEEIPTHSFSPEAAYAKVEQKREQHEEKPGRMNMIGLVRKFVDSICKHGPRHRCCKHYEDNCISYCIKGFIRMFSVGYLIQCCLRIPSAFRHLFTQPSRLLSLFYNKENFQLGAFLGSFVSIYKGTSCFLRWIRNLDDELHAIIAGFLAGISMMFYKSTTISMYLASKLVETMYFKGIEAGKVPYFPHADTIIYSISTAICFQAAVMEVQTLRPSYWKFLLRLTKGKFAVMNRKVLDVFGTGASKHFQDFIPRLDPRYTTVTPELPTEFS
UniProt Q9Y490: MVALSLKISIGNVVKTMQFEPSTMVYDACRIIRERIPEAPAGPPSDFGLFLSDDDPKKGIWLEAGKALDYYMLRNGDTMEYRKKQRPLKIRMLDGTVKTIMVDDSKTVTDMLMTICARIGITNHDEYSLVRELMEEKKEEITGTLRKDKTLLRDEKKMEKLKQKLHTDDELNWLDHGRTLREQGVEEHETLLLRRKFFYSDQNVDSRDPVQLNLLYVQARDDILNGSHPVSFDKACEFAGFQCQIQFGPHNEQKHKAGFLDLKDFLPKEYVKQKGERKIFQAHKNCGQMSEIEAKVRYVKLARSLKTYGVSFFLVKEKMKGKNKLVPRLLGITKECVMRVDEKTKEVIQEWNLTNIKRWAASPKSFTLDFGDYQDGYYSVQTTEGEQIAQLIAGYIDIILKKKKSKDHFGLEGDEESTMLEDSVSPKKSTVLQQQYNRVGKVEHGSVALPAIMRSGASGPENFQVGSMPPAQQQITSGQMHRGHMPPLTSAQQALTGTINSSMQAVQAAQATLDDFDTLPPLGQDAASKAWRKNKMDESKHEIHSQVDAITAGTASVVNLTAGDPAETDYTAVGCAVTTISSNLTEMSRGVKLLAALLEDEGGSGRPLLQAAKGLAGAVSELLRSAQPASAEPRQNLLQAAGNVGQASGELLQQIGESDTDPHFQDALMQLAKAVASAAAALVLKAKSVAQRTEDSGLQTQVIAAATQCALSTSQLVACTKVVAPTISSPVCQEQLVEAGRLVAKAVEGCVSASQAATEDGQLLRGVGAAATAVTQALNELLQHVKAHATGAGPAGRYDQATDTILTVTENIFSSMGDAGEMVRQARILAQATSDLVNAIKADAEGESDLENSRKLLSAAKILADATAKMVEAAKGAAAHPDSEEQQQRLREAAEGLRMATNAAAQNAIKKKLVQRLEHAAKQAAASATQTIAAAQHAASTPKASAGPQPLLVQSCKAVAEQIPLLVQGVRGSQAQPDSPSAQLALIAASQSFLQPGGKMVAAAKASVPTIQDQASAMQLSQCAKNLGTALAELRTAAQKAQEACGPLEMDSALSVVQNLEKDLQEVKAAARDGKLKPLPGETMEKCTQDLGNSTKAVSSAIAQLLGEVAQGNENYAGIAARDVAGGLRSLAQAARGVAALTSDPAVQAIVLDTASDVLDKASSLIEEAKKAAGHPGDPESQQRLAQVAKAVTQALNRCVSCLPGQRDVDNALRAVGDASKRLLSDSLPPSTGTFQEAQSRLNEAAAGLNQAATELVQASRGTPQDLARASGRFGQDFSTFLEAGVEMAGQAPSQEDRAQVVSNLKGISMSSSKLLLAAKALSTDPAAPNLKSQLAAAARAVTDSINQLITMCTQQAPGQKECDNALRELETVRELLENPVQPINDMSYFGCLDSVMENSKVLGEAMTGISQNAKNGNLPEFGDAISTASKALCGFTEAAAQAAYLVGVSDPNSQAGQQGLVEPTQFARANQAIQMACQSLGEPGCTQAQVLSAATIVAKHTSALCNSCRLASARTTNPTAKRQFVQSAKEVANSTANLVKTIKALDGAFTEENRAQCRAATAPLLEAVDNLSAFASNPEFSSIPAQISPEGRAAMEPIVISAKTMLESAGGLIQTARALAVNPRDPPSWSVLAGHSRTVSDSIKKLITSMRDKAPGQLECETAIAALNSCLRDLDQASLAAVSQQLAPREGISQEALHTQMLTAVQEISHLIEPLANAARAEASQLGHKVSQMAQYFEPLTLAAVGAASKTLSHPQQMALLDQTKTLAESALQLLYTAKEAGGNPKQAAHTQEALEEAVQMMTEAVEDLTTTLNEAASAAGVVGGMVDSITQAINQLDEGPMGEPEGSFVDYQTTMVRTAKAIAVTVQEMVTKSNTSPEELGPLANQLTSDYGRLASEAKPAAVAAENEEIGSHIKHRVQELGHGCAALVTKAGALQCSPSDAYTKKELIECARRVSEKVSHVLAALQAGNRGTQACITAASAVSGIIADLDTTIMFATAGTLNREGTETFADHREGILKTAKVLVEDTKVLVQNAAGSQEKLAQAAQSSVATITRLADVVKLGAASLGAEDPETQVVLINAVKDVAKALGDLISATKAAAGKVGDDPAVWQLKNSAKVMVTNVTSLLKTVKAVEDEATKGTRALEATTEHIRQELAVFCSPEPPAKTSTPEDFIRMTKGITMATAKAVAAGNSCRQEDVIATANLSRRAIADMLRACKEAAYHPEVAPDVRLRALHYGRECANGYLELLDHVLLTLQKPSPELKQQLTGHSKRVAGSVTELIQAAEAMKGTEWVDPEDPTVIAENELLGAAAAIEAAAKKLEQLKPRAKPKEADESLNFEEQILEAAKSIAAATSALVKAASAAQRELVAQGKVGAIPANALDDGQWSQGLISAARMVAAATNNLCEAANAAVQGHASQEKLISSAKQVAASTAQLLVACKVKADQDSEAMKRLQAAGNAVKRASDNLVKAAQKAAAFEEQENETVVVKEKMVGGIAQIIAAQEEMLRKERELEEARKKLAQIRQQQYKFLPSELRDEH
UniProt Q96RS0: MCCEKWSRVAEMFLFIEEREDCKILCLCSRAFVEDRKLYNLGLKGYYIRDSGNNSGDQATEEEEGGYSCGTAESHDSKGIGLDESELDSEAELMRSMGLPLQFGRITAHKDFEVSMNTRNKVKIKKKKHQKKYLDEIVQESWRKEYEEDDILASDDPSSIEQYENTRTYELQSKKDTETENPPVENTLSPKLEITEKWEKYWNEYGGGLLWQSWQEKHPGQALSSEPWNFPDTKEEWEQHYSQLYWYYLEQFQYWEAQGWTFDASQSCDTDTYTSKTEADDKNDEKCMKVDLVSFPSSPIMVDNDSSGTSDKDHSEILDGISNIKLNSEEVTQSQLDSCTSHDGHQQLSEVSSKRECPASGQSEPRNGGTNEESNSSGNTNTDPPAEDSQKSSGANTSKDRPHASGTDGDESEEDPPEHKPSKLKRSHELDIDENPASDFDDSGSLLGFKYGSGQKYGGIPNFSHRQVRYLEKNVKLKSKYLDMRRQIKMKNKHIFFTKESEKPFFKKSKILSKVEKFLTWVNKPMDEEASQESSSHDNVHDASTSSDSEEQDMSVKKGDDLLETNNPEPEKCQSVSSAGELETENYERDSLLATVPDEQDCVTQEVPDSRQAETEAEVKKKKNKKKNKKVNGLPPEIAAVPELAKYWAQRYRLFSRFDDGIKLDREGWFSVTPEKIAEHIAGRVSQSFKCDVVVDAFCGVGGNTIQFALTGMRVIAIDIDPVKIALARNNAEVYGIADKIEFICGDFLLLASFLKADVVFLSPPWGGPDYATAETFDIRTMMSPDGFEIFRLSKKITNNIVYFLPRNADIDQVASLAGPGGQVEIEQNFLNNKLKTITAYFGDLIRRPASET
UniProt Q9UKI8: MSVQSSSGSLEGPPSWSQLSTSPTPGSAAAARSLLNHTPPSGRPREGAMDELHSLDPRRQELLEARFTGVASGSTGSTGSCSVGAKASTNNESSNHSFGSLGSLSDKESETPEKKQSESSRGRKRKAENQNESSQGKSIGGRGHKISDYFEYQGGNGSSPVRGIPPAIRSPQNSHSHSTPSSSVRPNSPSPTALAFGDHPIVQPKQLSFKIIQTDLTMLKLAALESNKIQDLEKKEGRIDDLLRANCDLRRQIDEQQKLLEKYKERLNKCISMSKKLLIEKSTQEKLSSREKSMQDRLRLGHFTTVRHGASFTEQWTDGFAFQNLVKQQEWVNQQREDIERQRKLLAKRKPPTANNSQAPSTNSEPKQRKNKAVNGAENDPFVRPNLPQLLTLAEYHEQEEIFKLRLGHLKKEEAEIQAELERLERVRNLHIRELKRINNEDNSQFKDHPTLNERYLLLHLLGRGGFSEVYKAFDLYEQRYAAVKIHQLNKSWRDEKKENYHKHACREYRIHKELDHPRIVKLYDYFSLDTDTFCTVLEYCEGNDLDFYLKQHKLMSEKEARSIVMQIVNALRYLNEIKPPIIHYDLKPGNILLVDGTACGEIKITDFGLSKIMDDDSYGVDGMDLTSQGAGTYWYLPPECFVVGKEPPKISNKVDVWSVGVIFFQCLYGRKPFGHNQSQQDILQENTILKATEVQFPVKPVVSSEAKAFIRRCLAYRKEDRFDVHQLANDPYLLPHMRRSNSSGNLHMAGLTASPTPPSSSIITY
UniProt P49755: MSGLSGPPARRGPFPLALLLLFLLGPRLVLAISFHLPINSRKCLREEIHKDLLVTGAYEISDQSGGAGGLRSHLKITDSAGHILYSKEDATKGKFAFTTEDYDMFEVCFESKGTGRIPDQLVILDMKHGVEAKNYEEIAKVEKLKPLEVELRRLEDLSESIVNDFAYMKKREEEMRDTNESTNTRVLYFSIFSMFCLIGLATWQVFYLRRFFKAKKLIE
UniProt Q9BV44: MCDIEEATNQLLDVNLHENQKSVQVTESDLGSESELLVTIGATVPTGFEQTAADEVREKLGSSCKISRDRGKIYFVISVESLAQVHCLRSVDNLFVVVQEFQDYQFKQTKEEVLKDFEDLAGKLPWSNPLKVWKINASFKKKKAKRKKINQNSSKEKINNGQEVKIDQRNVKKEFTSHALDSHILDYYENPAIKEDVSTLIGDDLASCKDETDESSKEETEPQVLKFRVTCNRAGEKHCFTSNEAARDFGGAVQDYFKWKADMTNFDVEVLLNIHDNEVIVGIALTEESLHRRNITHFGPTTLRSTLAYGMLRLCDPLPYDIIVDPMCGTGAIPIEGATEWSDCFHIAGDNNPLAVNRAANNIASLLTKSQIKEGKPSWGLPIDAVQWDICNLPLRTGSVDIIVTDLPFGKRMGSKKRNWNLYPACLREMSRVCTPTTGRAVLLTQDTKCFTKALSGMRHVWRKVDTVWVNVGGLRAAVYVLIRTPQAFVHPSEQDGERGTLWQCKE
UniProt Q86W42: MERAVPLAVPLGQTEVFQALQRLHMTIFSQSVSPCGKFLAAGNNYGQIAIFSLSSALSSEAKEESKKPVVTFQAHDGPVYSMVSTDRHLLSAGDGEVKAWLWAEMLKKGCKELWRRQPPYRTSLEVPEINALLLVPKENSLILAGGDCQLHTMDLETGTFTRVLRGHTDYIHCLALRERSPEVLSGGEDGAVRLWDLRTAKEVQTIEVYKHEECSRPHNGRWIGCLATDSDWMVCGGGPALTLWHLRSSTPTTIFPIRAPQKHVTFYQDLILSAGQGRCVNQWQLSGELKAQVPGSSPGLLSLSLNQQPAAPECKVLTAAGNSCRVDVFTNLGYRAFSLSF
UniProt Q8IUX1: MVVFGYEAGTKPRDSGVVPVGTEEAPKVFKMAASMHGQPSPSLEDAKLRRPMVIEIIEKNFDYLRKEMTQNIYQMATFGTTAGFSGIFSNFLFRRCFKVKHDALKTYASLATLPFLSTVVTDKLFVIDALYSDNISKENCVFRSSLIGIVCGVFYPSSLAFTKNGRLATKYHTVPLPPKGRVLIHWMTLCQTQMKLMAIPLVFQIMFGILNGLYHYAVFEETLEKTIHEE
UniProt Q5JTD0: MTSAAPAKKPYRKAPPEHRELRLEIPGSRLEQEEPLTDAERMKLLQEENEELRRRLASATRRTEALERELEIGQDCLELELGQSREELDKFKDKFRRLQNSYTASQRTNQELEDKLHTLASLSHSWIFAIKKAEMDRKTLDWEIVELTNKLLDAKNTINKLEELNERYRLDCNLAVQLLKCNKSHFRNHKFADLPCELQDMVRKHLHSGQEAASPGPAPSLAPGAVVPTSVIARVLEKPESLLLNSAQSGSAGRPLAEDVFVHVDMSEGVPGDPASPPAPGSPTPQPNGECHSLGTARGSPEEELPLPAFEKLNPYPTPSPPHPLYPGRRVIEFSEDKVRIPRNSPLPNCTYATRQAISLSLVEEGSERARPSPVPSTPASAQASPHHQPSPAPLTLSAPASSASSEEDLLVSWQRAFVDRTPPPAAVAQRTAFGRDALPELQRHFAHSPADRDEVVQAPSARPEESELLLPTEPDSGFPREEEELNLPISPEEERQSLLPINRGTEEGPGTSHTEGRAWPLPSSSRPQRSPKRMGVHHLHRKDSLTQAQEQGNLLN

Columns and labels:
Assay in all cases: log2 fold change, soluble protein after heating vs DMSO (PISA); higher = thermal stabilisation; K562 lysate, 10 uM; active = over 0.2 and 3.5 SD of the protein, either way, in both replicates (recomputed)
alvocidib = compound: CN1CC[C@H](c2c(O)cc(O)c3c(=O)cc(-c4ccccc4Cl)oc23)[C@H](O)C1 [alvocidib]
Summary of the method: (§1)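 Log-two fold change in thermal stability relative to solvent controls is reported from duplicates. For each sample, crude K562 extract from dounce-homogenised pellets in PBS pH 7.4 with 1 mM MgCl2, at 1 mg/mL protein, was treated with 10 μM compound for 30 min. Aliquots heated for 3 min across 48°C-58°C were pooled, brought to 0.5% NP-40 at 4°C and cleared at 21,000xg for 90 min. The supernatant was quantified by TMTpro 16plex LC-MS/MS with channel sums equalised.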

Tubastatin A = compound: CN1CCc2c(c3ccccc3n2Cc2ccc(C(=O)NO)cc2)C1 [Tubastatin A]
Summary of the method: as §1

[1] = compound: CNC(=O)C1=CC=CC=C1NC2=NC(=NC=C2Cl)NC3=C(C=C(C=C3)N4CCOCC4)OC
Summary of the method: as §1

defactinib = compound: CNC(=O)c1ccc(Nc2ncc(C(F)(F)F)c(NCc3nccnc3N(C)S(C)(=O)=O)n2)cc1 [defactinib]
Summary of the method: as §1

[2] = compound: CNc1nc(-c2ccc3c(N)n[nH]c3c2)cc(N2C[C@@H](C(=O)NC3CCCCC3)CC[C@H]2C)n1
Summary of the method: as §1

encorafenib = compound: COC(=O)N[C@@H](C)CNc1nccc(-c2cn(C(C)C)nc2-c2cc(Cl)cc(NS(C)(=O)=O)c2F)n1 [encorafenib]
Summary of the method: as §1

[3] = compound: COC(=O)[C@H](CCSC)NC(=O)C1=C(C=C(C=C1)NC[C@H](CS)N)C2=CC=CC=C2
Summary of the method: as §1

alisertib = compound: COc1cc(Nc2ncc3c(n2)-c2ccc(Cl)cc2C(c2c(F)cccc2OC)=NC3)ccc1C(=O)O [alisertib]
Summary of the method: as §1

[4] = compound: COc1cc2nc(-c3cc(F)ccc3O)nc(N[C@@H]3CNC[C@H]3C(C)(C)O)c2cc1OC
Summary of the method: as §1

gefitinib = compound: COc1cc2ncnc(Nc3ccc(F)c(Cl)c3)c2cc1OCCCN1CCOCC1 [gefitinib]
Summary of the method: as §1

lapatinib = compound: CS(=O)(=O)CCNCc1ccc(-c2ccc3ncnc(Nc4ccc(OCc5cccc(F)c5)c(Cl)c4)c3c2)o1 [lapatinib]
Summary of the method: as §1

pictilisib = compound: CS(=O)(=O)N1CCN(Cc2cc3nc(-c4cccc5[nH]ncc45)nc(N4CCOCC4)c3s2)CC1 [pictilisib]
Summary of the method: as §1

crizotinib = compound: C[C@@H](Oc1cc(-c2cnn(C3CCNCC3)c2)cnc1N)c1c(Cl)ccc(F)c1Cl [crizotinib]
Summary of the method: as §1

[5] = compound: C[C@H](C1=CC=C(C=C1)C(=O)NC2=C3C=CNC3=NC=C2)N
Summary of the method: as §1

duvelisib = compound: C[C@H](Nc1ncnc2nc[nH]c12)c1cc2cccc(Cl)c2c(=O)n1-c1ccccc1 [duvelisib]
Summary of the method: as §1

gandotinib = compound: Cc1cc(Nc2cc(CN3CCOCC3)c3nc(C)c(Cc4ccc(Cl)cc4F)n3n2)n[nH]1 [gandotinib]
Summary of the method: as §1

tozasertib = compound: Cc1cc(Nc2cc(N3CCN(C)CC3)nc(Sc3ccc(NC(=O)C4CC4)cc3)n2)n[nH]1 [tozasertib]
Summary of the method: as §1

doramapimod = compound: Cc1ccc(-n2nc(C(C)(C)C)cc2NC(=O)Nc2ccc(OCCN3CCOCC3)c3ccccc23)cc1 [doramapimod]
Summary of the method: as §1

bafetinib = compound: Cc1ccc(NC(=O)c2ccc(CN3CC[C@H](N(C)C)C3)c(C(F)(F)F)c2)cc1Nc1nccc(-c2cncnc2)n1 [bafetinib]
Summary of the method: as §1

[6] = compound: Cc1cccc(CC(=O)N2CCc3c2ccc(-c2cn(C)c4ncnc(N)c24)c3F)n1
Summary of the method: as §1

Target	log2 fold change (alvocidib)	log2 fold change (Tubastatin A)	log2 fold change [1]	log2 fold change (defactinib)	log2 fold change [2]	log2 fold change (encorafenib)	log2 fold change [3]	log2 fold change (alisertib)	log2 fold change [4]	log2 fold change (gefitinib)	log2 fold change (lapatinib)	log2 fold change (pictilisib)	log2 fold change (crizotinib)	log2 fold change [5]	log2 fold change (duvelisib)	log2 fold change (gandotinib)	log2 fold change (tozasertib)	log2 fold change (doramapimod)	log2 fold change (bafetinib)	log2 fold change [6]
TMEM135 (UniProt Q86UB9)	inactive: 0.119	inactive: 0.008	inactive: -0.001	inactive: 0.205	inactive: -0.156	inactive: 0.088	inactive: -0.038	inactive: -0.018	inactive: 0.09	inactive: 0.021	inactive: -0.039	inactive: -0.007	inactive: 0.078	inactive: 0.101	inactive: 0.074	inactive: -0.048	inactive: -0.051	inactive: -0.021	inactive: -0.051	inactive: -0.099
THUMPD2 (UniProt Q9BTF0)	inactive: 0.01	inactive: 0.011	inactive: -0.012	inactive: -0.016	inactive: 0.056	inactive: -0.001	inactive: 0.006	inactive: -0.057	inactive: 0.045	inactive: 0.007	inactive: 0.028	inactive: -0.054	inactive: -0.013	inactive: -0.013	inactive: 0.042	inactive: -0.014	inactive: -0.011	inactive: -0.006	inactive: -0.035	inactive: 0.02
TLN1 (UniProt Q9Y490)	inactive: -0.001	inactive: 0.01	inactive: -0.011	inactive: -0.009	inactive: -0.009	inactive: -0.014	inactive: 0.021	inactive: 0.006	inactive: -0.005	inactive: -0.017	inactive: -0.004	inactive: 0	inactive: 0.01	inactive: -0.012	inactive: 0.005	inactive: -0.005	inactive: 0.002	inactive: 0.007	inactive: -0.003	inactive: 0.002
TGFBR3 (UniProt Q03167)	inactive: -0.039	inactive: 0.035	inactive: 0.034	inactive: -0.03	inactive: 0.002	inactive: 0.007	inactive: -0.035	inactive: 0.004	inactive: 0.022	inactive: 0.05	inactive: -0.027	inactive: -0.043	inactive: -0.064	inactive: -0.055	inactive: 0.053	inactive: 0.02	inactive: -0.048	inactive: 0.047	inactive: -0.049	inactive: 0.064
TIPRL (UniProt O75663)	inactive: -0.026	inactive: 0.006	inactive: -0.021	inactive: -0.016	inactive: 0.033	inactive: 0.011	inactive: -0.115	inactive: 0.001	inactive: -0.021	inactive: 0	inactive: 0.005	inactive: -0.004	inactive: -0.023	inactive: -0.056	inactive: 0.016	inactive: 0.027	inactive: 0.004	inactive: -0.001	inactive: 0.03	inactive: 0.004
TGS1 (UniProt Q96RS0)	inactive: -0.034	inactive: -0.071	inactive: 0.019	inactive: 0.043	inactive: -0.049	inactive: 0.034	inactive: -0.045	inactive: 0.013	inactive: -0.042	inactive: 0.021	inactive: -0.006	inactive: 0.002	inactive: -0.019	inactive: -0.099	inactive: 0.012	inactive: 0.045	inactive: 0.022	inactive: 0.021	inactive: -0.033	inactive: 0.091
TLK1 isoform 2 (UniProt Q9UKI8)	inactive: -0.05	inactive: -0.092	inactive: 0.046	inactive: 0.16	inactive: 0.023	inactive: -0.045	inactive: -0.14	inactive: -0.028	inactive: 0.05	inactive: 0.01	inactive: -0.047	inactive: 0.135	inactive: -0.061	inactive: -0.032	inactive: -0.048	active: 0.456	inactive: 0.014	inactive: 0.011	inactive: -0.014	inactive: 0.022
THEM6 (UniProt Q8WUY1)	inactive: -0.019	inactive: 0.009	inactive: -0.032	inactive: 0.066	inactive: 0.05	inactive: 0.051	inactive: -0.002	inactive: 0.037	inactive: 0	inactive: -0.048	inactive: 0.016	inactive: -0.007	inactive: 0.048	inactive: 0.003	inactive: 0.085	inactive: -0.003	inactive: -0.07	inactive: 0.096	inactive: -0.046	inactive: -0.035
TMED10 (UniProt P49755)	inactive: 0.043	inactive: 0.028	inactive: -0.006	inactive: -0.002	inactive: -0.021	inactive: 0.015	inactive: -0.015	inactive: -0.037	inactive: -0.044	inactive: -0.083	inactive: -0.01	inactive: -0.05	inactive: -0.04	inactive: 0.095	inactive: 0.017	inactive: -0.047	inactive: 0.005	inactive: -0.03	inactive: 0.071	inactive: -0.093
THUMPD3 (UniProt Q9BV44)	inactive: -0.025	inactive: 0.012	inactive: 0.034	inactive: -0.03	inactive: 0.053	inactive: -0.024	inactive: -0.033	inactive: 0.014	inactive: -0.003	inactive: -0.008	inactive: -0.029	inactive: 0.004	inactive: -0.029	inactive: 0.004	inactive: 0.013	inactive: 0.017	inactive: -0.034	inactive: 0.017	inactive: 0.013	inactive: 0
THOC6 (UniProt Q86W42)	inactive: -0.02	inactive: 0.013	inactive: -0.013	inactive: -0.041	inactive: 0.017	inactive: -0.027	inactive: 0.161	inactive: 0.013	inactive: 0.01	inactive: 0.01	inactive: -0.021	inactive: -0.034	inactive: -0.008	inactive: -0.022	inactive: 0.025	inactive: 0.029	inactive: -0.03	inactive: 0.025	inactive: 0.013	inactive: 0.028
TMEM126B (UniProt Q8IUX1)	inactive: -0.035	inactive: 0.061	inactive: 0	inactive: -0.045	inactive: 0.044	inactive: -0.006	inactive: 0.011	inactive: 0.019	inactive: -0.014	inactive: -0.015	inactive: -0.067	inactive: -0.076	inactive: -0.04	inactive: -0.057	inactive: 0.047	inactive: 0.081	inactive: -0.021	inactive: 0.029	inactive: -0.109	inactive: 0.099
TJP2 isoform 7 (UniProt Q9UDY2)	inactive: -0.019	inactive: -0.014	inactive: -0.021	inactive: -0.007	inactive: -0.008	inactive: 0.045	inactive: 0.058	inactive: -0.028	inactive: -0.015	inactive: -0.029	inactive: -0.04	inactive: -0.037	inactive: -0.023	inactive: -0.062	inactive: 0.037	inactive: -0.068	inactive: 0.005	inactive: 0.049	inactive: -0.055	inactive: 0.045
THOC5 (UniProt Q13769)	inactive: -0.027	inactive: -0.025	inactive: -0.021	inactive: -0.008	inactive: -0.016	inactive: 0.005	inactive: 0.062	inactive: 0.059	inactive: 0.006	inactive: -0.018	inactive: -0.036	inactive: -0.007	inactive: -0.011	inactive: -0.024	inactive: -0.009	inactive: -0.021	inactive: -0.01	inactive: 0.02	inactive: -0.009	inactive: 0.035
TK1 (UniProt P04183)	inactive: -0.051	inactive: 0.004	inactive: 0.006	inactive: -0.011	inactive: 0.032	inactive: -0.018	inactive: -0.025	inactive: -0.002	inactive: 0.017	inactive: 0.013	inactive: -0.006	inactive: 0.022	inactive: 0.022	inactive: -0.133	inactive: 0.023	inactive: 0.062	inactive: 0	inactive: 0	inactive: 0.009	inactive: 0.021
TJAP1 (UniProt Q5JTD0)	inactive: -0.09	inactive: 0.036	inactive: -0.014	inactive: -0.017	inactive: 0.008	inactive: -0.016	inactive: -0.143	inactive: -0.047	inactive: -0.005	inactive: 0.035	inactive: -0.009	inactive: -0.059	inactive: 0.065	inactive: -0.092	inactive: 0.069	inactive: 0.09	inactive: -0.007	inactive: 0.014	inactive: -0.004	inactive: 0.122

2 entries drawn at random from the list so far, as already listed:
Target	log2 fold change (alvocidib)	log2 fold change (Tubastatin A)	log2 fold change [1]	log2 fold change (defactinib)	log2 fold change [2]	log2 fold change (encorafenib)	log2 fold change [3]	log2 fold change (alisertib)	log2 fold change [4]	log2 fold change (gefitinib)	log2 fold change (lapatinib)	log2 fold change (pictilisib)	log2 fold change (crizotinib)	log2 fold change [5]	log2 fold change (duvelisib)	log2 fold change (gandotinib)	log2 fold change (tozasertib)	log2 fold change (doramapimod)	log2 fold change (bafetinib)	log2 fold change [6]
TJAP1 (UniProt Q5JTD0)	inactive: -0.09	inactive: 0.036	inactive: -0.014	inactive: -0.017	inactive: 0.008	inactive: -0.016	inactive: -0.143	inactive: -0.047	inactive: -0.005	inactive: 0.035	inactive: -0.009	inactive: -0.059	inactive: 0.065	inactive: -0.092	inactive: 0.069	inactive: 0.09	inactive: -0.007	inactive: 0.014	inactive: -0.004	inactive: 0.122
TK1 (UniProt P04183)	inactive: -0.051	inactive: 0.004	inactive: 0.006	inactive: -0.011	inactive: 0.032	inactive: -0.018	inactive: -0.025	inactive: -0.002	inactive: 0.017	inactive: 0.013	inactive: -0.006	inactive: 0.022	inactive: 0.022	inactive: -0.133	inactive: 0.023	inactive: 0.062	inactive: 0	inactive: 0	inactive: 0.009	inactive: 0.021
